Reference: PubChem BioAssay AID651803 (National Center for Advancing Translational Sciences (NCATS), 2012)
Fewer than 10 of roughly 1,200 compounds were called active. Calls follow the shape of the dose curve; as a rule, active = well fitted curve in the direction sought with a large enough effect; inconclusive = small, poorly fitted or top-dose-only effect, or another doubt; inactive = no such curve, though single readings can be large or run the other way. The list shows a part of the results.

Amino acid sequences for entries named in this document (tags omitted). A change or cut given only in a name is not applied to a line headed by its entry.
UniProt P11308: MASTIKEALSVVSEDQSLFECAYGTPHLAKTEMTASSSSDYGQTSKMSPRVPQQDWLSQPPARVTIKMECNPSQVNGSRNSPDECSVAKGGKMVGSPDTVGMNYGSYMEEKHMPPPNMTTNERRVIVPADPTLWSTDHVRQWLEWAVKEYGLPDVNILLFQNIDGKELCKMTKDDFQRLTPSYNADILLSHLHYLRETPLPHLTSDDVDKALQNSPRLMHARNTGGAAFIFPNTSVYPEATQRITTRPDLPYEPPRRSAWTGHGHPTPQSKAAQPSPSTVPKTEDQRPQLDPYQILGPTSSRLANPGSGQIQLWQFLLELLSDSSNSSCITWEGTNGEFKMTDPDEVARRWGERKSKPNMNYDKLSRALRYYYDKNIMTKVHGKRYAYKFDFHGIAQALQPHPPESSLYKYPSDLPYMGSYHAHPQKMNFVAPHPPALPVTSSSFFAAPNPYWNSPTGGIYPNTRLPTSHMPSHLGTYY

These molecules were tested against Transcriptional regulator ERG (Homo sapiens) (UniProt P11308) (assay: qHTS for Small Molecule Inhibitors of the ERG Ets/DNA interaction: TR assay against cherry picks). Conditions: ERG Ets domain-DNA fluorescence polarization, Texas red probe; at 154 µM (top of the series).
Method in brief: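 Polarization read sequentially for fluorescein (ex 480/em 535 nm) and Texas red (ex 555/em 632 nm) probes, 5 nM and 100 nM solutions, displaced from His-ERG Ets domain (1 uM solution), pH 7.5 Tris/KCl/EDTA/DTT buffer.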
Also: % of control where 0% means no effect.

Activity change, negative = inhibition, inactive:
O=C(COc1ccccc1)Nc1ccc2c(c1)Cc1cc(NC(=O)COc3ccccc3)ccc1-2 2%, CCOc1cc(S(=O)(=O)n2ccc(C)n2)ccc1Br 10.8%, CC(Oc1ccccc1)C(=O)Nc1ccc(S(=O)(=O)N2CCN(C)CC2)cc1 (stereo not drawn) -8.43%, COc1ccc(NC(=S)Nc2ccc(N(C)C(C)=O)cc2)cc1 9.81%, COc1ccc(C(=O)N2CCc3ccc(NC(=O)c4ccccn4)cc3C2)cc1F -0.766%, COc1ccc(OC)c(/C=N/NC(=O)c2ccc[n+](CC(=O)c3ccccc3)c2)c1 4.84%, COc1ccc(/C=N/n2cnnc2)cc1Br -7.09%, Cc1nc2ccccc2c(=O)n1NC(=O)c1cccnc1Cl -1.27%, O=C(CSc1ncccc1C(=O)O)NCCC1=CCCCC1 0.0624%, Nc1ccccc1S(N)(=O)=O -4.27%, COc1ccc(CCC(=O)N2CCN(S(=O)(=O)c3ccc(C)cc3)CC2)cc1 2.3%, COc1ccc2c(CCNC(=O)/C=C/c3ccc(OC)c(OC)c3)c[nH]c2c1 1.82%, COc1ccccc1NC(=O)C(=O)N/N=C(\C)CC(=O)Nc1ccccn1 2.79%, Cc1cc(N)ccc1-n1c(C)ccc1C -12.2%, CC(=O)c1ccc(N(CC(=O)NC2CCS(=O)(=O)C2)S(=O)(=O)c2ccc(C)cc2)cc1 (stereo not drawn) 25.8%, Cc1ccc(C=Nc2cccnc2N)cc1 44%, Cn1c(SCc2ccc([N+](=O)[O-])cc2)nnc1-c1cccnc1 5.13%, O=C(Nc1nc(-c2ccc(F)c(F)c2)cs1)c1cc([N+](=O)[O-])ccc1N1CCOCC1 1.32%, Cc1ccc(C)c(N(CC(=O)NCc2ccco2)C(=O)CNS(=O)(=O)c2ccc(F)cc2)c1 2.79%, Clc1ccc(-c2csc(N/N=C/c3ccco3)n2)cc1 -19.8%, COc1cc(OC)cc(C(=O)OCC(=O)N2CCCC2)c1 0.0223%, COc1cc(-c2ccc(Nc3ccccc3C(=O)O)c(OC)c2)ccc1Nc1ccccc1C(=O)O -17.9%, COc1ccc(OC)c(NC(=O)c2cccc(NC(=O)c3ccccc3)c2)c1 4.7%, CCCNC(=O)C1=C(C)C(=O)OC12CCC(C)CC2 (stereo not drawn) 5.66%, CCn1c(CSc2ncn[nH]2)nc2cc(C(=O)O)ccc21 28.3%, CCN(CC)CCCNC(=O)c1cc(Nc2ccc(OC)cc2OC)nc2ccccc12 -5.72%, CCn1ncc(Br)c1C(=O)Nc1cccc(C(C)=O)c1 3.75%, CC(=O)Nc1sc2c(c1-c1nc3ccccc3s1)CCN(C(C)C)C2 -14.4%, Cc1ccc(C(=O)Nc2nnc(COc3ccccc3)s2)cc1 9.85%, COc1ncnc2c1N=C1CC(C)(C)CC(N)=C1S2 82%, CCCCn1c(N)c(N(CC)C(=O)c2ccc(C#N)cc2)c(=O)[nH]c1=O -1.33%, COCCn1c(C)cc(C(=O)CSc2nnnn2C2CCCC2)c1C 6.02%, O=C(NC1CCCC1)C1CCN(C(=O)c2cccc(Cl)c2)CC1 5.11%, COc1ccccc1S(=O)(=O)Cc1ccc(C(=O)NCCN(C)C)o1 0.0621%, CCOc1ccc(NC(=O)CN(C)C(=O)c2ccccc2CCc2ccccc2)cc1OCC -0.492%, Cc1noc(C)c1C(=O)Nc1cccnc1 -5.56%, Cc1c(NS(=O)(=O)c2ccc(NCC3CCCO3)c([N+](=O)[O-])c2)c(=O)n(-c2ccccc2)n1C (stereo not drawn) 0.67%, Oc1ccccc1CN1CCCC(N2CCN(c3cccc(C(F)(F)F)c3)CC2)C1 (stereo not drawn) -0.432%, CCC(c1nnnn1Cc1ccc(F)cc1)N1CCN(C)CC1 (stereo not drawn) 0.167%, CC(=O)c1cccc(NC(=O)C(C)OC(=O)c2ccc3ncsc3c2)c1 (stereo not drawn) -2.88%, CCCNC(=O)CCC(=O)N1Cc2ccccc2Oc2ncccc21 -15.3%, COc1ccc(C(=O)n2nc(C)c(Br)c2C)cc1OC 1.94%, CN(C)Cc1cc2ccccc2c2c1COC2 -13.2%, Cc1cc(C)c2nc(NC(=O)[C@@H](NC(=O)c3cccc(S(=O)(=O)N4CCOCC4)c3)C(C)C)sc2c1 -9.98%, CSc1ccc(S(=O)(=O)N2CCC(C(=O)NCc3ccncc3)CC2)cc1 -3.33%, CC(CN1CCOCC1)(NS(=O)(=O)c1ccccc1)c1ccccc1 (stereo not drawn) -9.83%, Cc1cccc([N+](=O)[O-])c1C(=O)O -2.94%, C[N+](C)(C)CCCCCC[N+](C)(C)C -3.19%, COC(=O)Cn1c(=NC(=O)C2COc3ccccc3O2)sc2cc(S(N)(=O)=O)ccc21 (stereo not drawn) 6.29%, O=C(O)c1cc(O)c2c(c1)[C@H]([C@H]1c3cc(C(=O)O)cc(O)c3C(=O)c3c(O[C@@H]4O[C@H](CO)[C@@H](O)[C@H](O)[C@H]4O)cccc31)c1cccc(OC3O[C@H](CO)[C@@H](O)[C@H](O)[C@H]3O)c1C2=O (stereo partly drawn) -12.2%, CN(C(=O)CSc1nnc(NC(=O)Nc2ccccc2)s1)c1ccccc1 -24.6%, COc1ccc([C@@H](NC(=O)OC(C)(C)C)C(=O)OC(C)(C)C)cc1 -13.8%, CC(C)C(=O)NC(=S)Nc1ccc(S(=O)(=O)Nc2ccccc2)cc1 -5.61%, COC(=O)c1ccccc1NS(=O)(=O)c1ccc2c(c1)CCCN2C(C)=O -9.86%, O=C(NC1CCSc2ccccc21)c1cc([N+](=O)[O-])ccc1N1CCOCC1 (stereo not drawn) -8.36%, CCCN1C[C@H](CSC)C[C@@H]2c3cccc4[nH]cc(c34)C[C@H]21 -4.98%, O=c1[nH]c2cc(F)ccc2c2ccc(F)cc12 -1.91%, O=C(NC1CCCCC1)C(c1ccc(O)cc1)N(C(=O)c1cnccn1)c1cccc(F)c1 (stereo not drawn) -0.587%, CCOC(=O)c1cnc2ccc(OC)cc2c1Nc1ccc(N2CCN(C)CC2)cc1 -8.5%, Cc1csc(=O)n1CCC(=O)OCC(=O)Nc1ncc(Cl)cc1Cl -0.888%, COc1cc(S(C)=O)ccc1-c1nc2ncccc2[nH]1 (stereo not drawn) 3.44%, Cn1c(CNC(=O)c2cccs2)n[nH]c1=S 5.98%, COC(=O)N/N=C/c1cccs1 -5.32%, Cc1cc(C(C)(C)C)c(O)c(C)c1CC1=NCCN1 3.64%, O=S(=O)(NC1CCCCC1)c1ccc(Br)s1 -2.71%, CC(C)COC(=O)/C(C#N)=C/c1c[nH]c2ccccc12 1.44%, Nc1cccc2nc3ccccc3cc12 -3.2%, O=C(NCC1CCCO1)C1CC(=O)N(c2ccc(Cl)cc2)C1 (stereo not drawn) 5.06%, COC(=O)c1ccc(COc2ccccc2[N+](=O)[O-])o1 -10.7%, CCCCCCCN=CC1=C(O)CC(c2ccccc2)CC1=O (stereo not drawn) 2.46%, COC(=O)c1c(C(=O)OC)c(-c2ccc(OC)cc2)n2c1CS(=O)C2 (stereo not drawn) 4.12%, Cc1cc(C)c2c(N)c(C(=O)c3ccc(Cl)cc3)sc2n1 5.05%, N#C/C(=C/c1ccc(N2CCCCC2)o1)C(=O)NCCc1c[nH]c2ccccc12 27.7%, Nn1cnnc1N/N=C/c1cccc(Cl)c1Cl 3.27%, CCOc1ccc2nc(SCC(=O)c3ccc(C)s3)sc2c1 2.47%, COc1cc(OC)cc(C(=O)NCC(=O)OCc2csc(-c3ccccc3)n2)c1 -2.77%, Cc1ncc([N+](=O)[O-])n1CC(=O)N/N=C/c1ccc(F)cc1 -3.78%, Cc1sc2nc(CSC(C)C(=O)Nc3ccc(C(N)=O)cc3)[nH]c(=O)c2c1C (stereo not drawn) -3%, CCC(C)NCCCOc1ccc(C)cc1OC (stereo not drawn) -4.22%, Nc1ccccc1-n1cccc1 3.9%, Cc1nn(C2CCS(=O)(=O)C2)c(Cl)c1/C=C/C(=O)OCC(=O)c1c[nH]c2ccccc12 (stereo not drawn) -5.66%, Cc1ccc(N(Cc2cc(=O)[nH]c3ccccc23)C(=O)CCl)c(C)c1 -9.63%, COc1cc([N+](=O)[O-])cc2sc(NC(=O)c3c(F)cccc3F)nc12 -4.41%, S=C(NCc1ccccc1)Nc1cccc(Cl)c1 3.35%, CCOc1ccccc1CNc1ccc(O)cc1 1.21%, Oc1ccc(NCc2ccccc2OCc2ccc(Cl)cc2)cc1 8.24%, COc1ccc(NC(=O)CSCC(=O)N(C)Cc2cccc(OC)c2OC)cc1 1.32%, CC(C)[C@H](NS(=O)(=O)c1ccccc1F)C(=O)NC1CCCCC1 -1.28%, CCOC(=O)C1(CCc2ccccc2)CCN(C(=O)[C@@H]2C[C@@H](C)NC(=S)N2)CC1 15.7%, NC(=O)Nc1ccc(C(=O)OCC(=O)NC2CCCc3ccccc32)cc1 (stereo not drawn) -13.4%, COc1ccc(NC(=O)c2ccc(NC(=O)c3nc4nccc(C)n4n3)cc2)cc1 9.11%, COc1cc(/C=N/N2C(=O)C3C4C=CC(CC4)C3C2=O)ccc1O (stereo not drawn) -7.44%, COc1ccc(C(c2c(C)n(C)n(-c3ccccc3)c2=O)c2c(C)n(C)n(-c3ccccc3)c2=O)c(OC)c1OC 1.81%
